According to US4835185A, “Immunomodulator for improving commercial performance of domestic animals” (Iowa State University Research Foundation, Inc., priority 1987, dated 1989):
At least one compound was matched to its structure with a doubt left.

Tests used:
[1] = system: white blood cells; experiment: White blood cell number and differential, sheep (experiments 1 and 2); format: in vivo, lambs (sheep)
Method: A study was conducted to determine if KIC administration can alter white blood cell function, specifically T lymphocyte function, in growing sheep and cattle. Eighteen medium-framed crossbred male lambs were used in experiment 1. Lambs were randomly assigned to either a control diet (n=10) or a diet supplemented with 1% KIC (n=8). Animals were fed ad libitum in individual cages. At 100 and 108 days of treatment, 50-ml blood samples were collected for lymphocyte and neutrophil function tests.
In experiment 2, 19 intact crossbred male lambs were randomly assigned to either a saline treatment group (n=9) or a KIC treatment group (n=10). Control lambs were injected with 50 ml of a saline solution, and KIC treated lambs were injected with 50 ml of a 5% solution of KIC (sodium salt) daily (~2.5 g KIC/day). All injections were made intraperitoneally in the right posterior abdominal region after disinfection of the area. At day 60 and day 66 of treatment, blood was collected for lymphocyte and neutrophil function tests.
Sheep in experiments 1 and 2 were fed diets based on a mixture of 48% corn, 5% molasses, 20% alfalfa meal, 0.8% limestone, 0.6% salt-mineral-vitamin mix and ~25% of a protein supplement (either soybean meal, corn gluten meal, or corn gluten feed). The diets were isonitrogenous and analyzed to be ~20% crude protein and 89% dry matter. The KIC diet consisted of the basal diet to which was added 1% calcium-KIC, whereas the control diet was the basal diet plus 0.25% calcium carbonate.
(§1) Blood was collected by jugular venapuncture into acid-citrate-dextrose anticoagulant. Lymphocytes and neutrophils were isolated, and lymphocyte blastogenesis and neutrophil function evaluated. KIC was obtained from SOBAC, Paris, France. Zein was purchased from Freeman Industries, Tuckahoe, NY. Each experiment was statistically analyzed by analysis of variance. In sheep experiments, individual animals were the experimental units, whereas pen means were analyzed in the cattle experiment.
^2 Total white blood cell number (WBC) is the cells per mm^3.

[2] = system: white blood cells; experiment: White blood cell number and differential, cattle (experiment 3); format: in vivo, castrated male cattle; settings: 0.02 and 0.07% KIC treated groups, experiment 3, cattle
Method: In experiment 3 72 castrated male cattle were allotted to 12 pens of 6 animals each. Three pens were assigned to each treatment: 0.0% KIC, 0.02% KIC, 0.07% KIC, and 0.20% KIC. Animals were fed ad libitum the respective diets for 6 weeks. At the end of the 6-233k periods, 100-ml blood samples were collected from each animal, and lymphocyte and neutrophil function were evaluated.
The basal cattle diet (experiment 3) consisted of 49% corn, 24% corn-cobs, 18% soybean meal, 7% molasses, 1.3% limestone, 0.25% dicalcium phosphate, 0.23% salt, 0.02% trace-mineral premix, and 0.11% vitamin premix. The basal diet was supplemented with w/w 0.05% control pellets, 0.04% KIC pellets, or 0.4% KIC pellets. All animals consumed ~10 kg of feed per day, resulting in ~0, 2, 7, or 20 g of Ca-KIC consumed per animal per day or 0, 0.02, 0.07, and 0.2% KIC of the total diet.
KIC pellets were made by mixing zein, ethanol, KIC, limestone, bentonite, and water in a ratio of 8.3:7.4:5.2:3:2.1. […]
as §1, with “KIC was obtained from SOBAC, Paris, France. Zein was purchased from Freeman Industries, Tuckahoe, NY.” left out, “experiment. […]” for “experiment.”

[3] = all experiments (sheep and cattle)

CC(C)CC(=O)C(=O)O [KIC, alpha-ketoisocaproate]
percentage that were segmented neutrophils [1, 3]: No significant changes | total white blood cell numbers [1, 3]: No significant changes | percentage of lymphocytes ([1]; experiment 2, sheep): increased | percentage of eosinophils ([1]; sheep and cattle fed KIC): tended to increase | percentage of eosinophils ([1]; sheep injected with KIC): decreased | percentage of lymphocytes [2]: increased
